Reference: PubChem BioAssay AID1347075 (National Center for Advancing Translational Sciences (NCATS), 2019)
Among all 400,000 compounds or so, about 5,500 (1.4%) were called active. The shares of active, inactive and inconclusive entries below differ from those in the screen. Calls follow the shape of the dose curve; as a rule, active = well fitted cell-killing curve with a large enough effect; inconclusive = small, poorly fitted or top-dose-only effect, or effect the other way; inactive = flat fitted curve, though single readings scatter. Potencies beside an inconclusive call are fits to weak or partial responses and may not hold up.

assay: qHTS assay for MDR1-selective chemotherapeutics: Primary screen using the parental adenocarcinoma cell KB-3-1; settings: KB-3-1 viability, CellTiter-Glo ATP luminescence, 72 h; activity change, negative = cytotoxic: at 46.1 µM (top of the series); also: nearly all actives have a fitted effect of over 60% in size
Method in brief: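 Parental KB-3-1 viability, qHTS format: 72 h compound exposure, 37 °C; CellTiter-Glo; media-only wells and DMSO plates as controls; concentration-effect fits on corrected data.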
% is scaled to controls: 0 for no effect and ±100 for the full control effect; potency is read from the fitted curve at half-maximal effect.

Compound | Potency | activity change, negative = cytotoxic
COc1ccc(C2CC(c3cccc(Cl)c3)=NN2c2ccc(S(N)(=O)=O)cc2)cc1 (configuration not stated) | inconclusive: 29.1 µM [cytotoxic, single point] | 
O=C(Nc1cc(Cl)cc(Cl)c1)N1CCN(C(=O)C2CCCO2)CC1 (configuration not stated) | inconclusive: 23.1 µM [rising, partial curve] | 
CC(OC(=O)CCC(=O)c1ccc(Cl)s1)C(=O)NC1(C#N)CCCCC1 (configuration not stated) | inactive | 
CCOC(=O)c1[nH]c(C)c(C(=O)OC(C)C(=O)Nc2ncc(Cl)cc2Cl)c1C (configuration not stated) | inconclusive: 35.5 µM [cytotoxic, single point] | 
CCCOC(=O)c1c(NC(=O)CCC(=O)O)sc2c1CCCCC2 | inconclusive: 23.1 µM [rising, partial curve] | 
COCCN1CC(O)=C(c2nc3ccccc3c(=O)[nH]2)C1=N | inconclusive: 16.4 µM [rising, partial curve, poor fit] | 
Cc1nc(N2CCN(c3ccccn3)CC2)c2c(C)c(C(=O)Nc3ccc(Br)cc3C)sc2n1 | inactive | 
CC(C)Cc1nnc(NC(=O)c2cc(-c3ccncc3)nc3ccccc23)s1 | inactive | 
CC(C)(C)S(=O)(=O)/C(C#N)=N/Nc1ccc(Cl)cc1 | inconclusive: 29.1 µM [cytotoxic, partial curve, poor fit] | 
C=CCn1c(-c2ccc(Cl)cc2)c[nH]c1=S | active: 20.6 µM | 
CCCCNC(=O)CN1CCN(c2ccc(NC(=O)c3ccc(OC)cc3)cc2C(=O)O)CC1 | inactive | 
COC(=O)[C@H]1C[C@@]2(O)CN(S(=O)(=O)c3ccc(C)cc3)C[C@@]2(OC(=O)NCc2ccccc2)C[C@H]1C(=O)OC | inconclusive: 0.058 µM [rising, partial curve, poor fit] | 
COc1ccc(C(=O)NC2CCN(CC(=O)NCc3cccc(OC)c3)CC2)cc1 | inconclusive: 16.4 µM [rising, single point] | 
CC1=CCC(C(=O)N/N=C/c2cccs2)C(c2ccc(F)cc2)C1 (configuration not stated) | inconclusive: 14.6 µM [cytotoxic, single point] | 
CC(=O)C1CCC2C3CCC4CC(=O)CCC4(C)C3C(O)CC12C (configuration not stated) | inactive | 
O=C(C[n+]1ccccc1Br)c1ccc(I)cc1 | inconclusive: 32.6 µM [rising, single point] | 
C=CCn1c(=O)c2c3c(sc2n2c(Nc4ccc(OC)cc4)nnc12)CCCC3 | inconclusive: 10.3 µM [cytotoxic, partial curve] | 
COc1ccc(NC(=O)CSc2nc3ccccc3cc2Cc2ccccc2)cc1 | inactive | 
CN1CCC(NC(=O)c2cc(-c3cccc(Br)c3)nc3ccccc23)CC1 | inconclusive: 29.1 µM [cytotoxic, single point] | 
CCn1ncc(C2=NOC(C(=O)Nc3ccc4c(c3)OCO4)C2)c1C (configuration not stated) | inconclusive: 18.4 µM [cytotoxic, single point] | 
CC(C)c1ccc(-c2nc(N3CCOCC3)[nH]c(=O)c2C#N)cc1 | inactive | 

9 neighbouring entries already listed, for reference:
Compound | Potency | activity change, negative = cytotoxic
O=C(Nc1cc(Cl)cc(Cl)c1)N1CCN(C(=O)C2CCCO2)CC1 (configuration not stated) | inconclusive: 23.1 µM [rising, partial curve] | 
CC(OC(=O)CCC(=O)c1ccc(Cl)s1)C(=O)NC1(C#N)CCCCC1 (configuration not stated) | inactive | 
CCOC(=O)c1[nH]c(C)c(C(=O)OC(C)C(=O)Nc2ncc(Cl)cc2Cl)c1C (configuration not stated) | inconclusive: 35.5 µM [cytotoxic, single point] | 
CCCOC(=O)c1c(NC(=O)CCC(=O)O)sc2c1CCCCC2 | inconclusive: 23.1 µM [rising, partial curve] | 
COCCN1CC(O)=C(c2nc3ccccc3c(=O)[nH]2)C1=N | inconclusive: 16.4 µM [rising, partial curve, poor fit] | 
Cc1nc(N2CCN(c3ccccn3)CC2)c2c(C)c(C(=O)Nc3ccc(Br)cc3C)sc2n1 | inactive | 
CC(C)Cc1nnc(NC(=O)c2cc(-c3ccncc3)nc3ccccc23)s1 | inactive | 
CC(C)(C)S(=O)(=O)/C(C#N)=N/Nc1ccc(Cl)cc1 | inconclusive: 29.1 µM [cytotoxic, partial curve, poor fit] | 
C=CCn1c(-c2ccc(Cl)cc2)c[nH]c1=S | active: 20.6 µM | 

Following part.

Compound | Potency | activity change, negative = cytotoxic
COc1cccc2c3c(c(=O)[nH]c12)CCC(C)(C)O3 | inconclusive: 16.4 µM [cytotoxic, single point] | 
O=C(CCCN1C(=O)/C(=C\c2ccco2)SC1=S)Nc1ccc2ccccc2c1 | inconclusive: 16.4 µM [cytotoxic, partial curve, poor fit] | 
CCCc1nc2sc3ccccc3c(=O)c2c(=O)n1Cc1ccc(OC)cc1 | inconclusive: 29.1 µM [cytotoxic, single point] | 
COC(=O)c1ccc(Cn2c(C)c(C(=O)Nc3cccc(Oc4ccccc4)c3)sc2=O)o1 | inconclusive: 23.1 µM [cytotoxic, single point] | 
O=C(CN1CCN(S(=O)(=O)c2ccccc2F)CC1)Nc1ccccc1C(=O)c1ccccc1 | inconclusive: 32.6 µM [cytotoxic, single point] | 
COc1ccc(CCNC(=O)C2CCN(S(=O)(=O)N3CCC4(CC3)OCCO4)CC2)cc1OC | inconclusive: 18.4 µM [rising, partial curve] | 
CCc1ccc(N(CC(=O)Nc2nc3ccc(C)cc3s2)S(=O)(=O)c2c(C)noc2C)cc1 | inconclusive: 29.1 µM [cytotoxic, single point] | 
CC[C@H](C)[C@@H](C(=O)NCCCCCCCCCCC(=O)N1CCN(C(=O)OC(C)(C)C)CC1)n1cc(CCCCCNC(=O)OC(C)(C)C)nn1 | inconclusive: 25.9 µM [cytotoxic, single point] | 
COCCCN(Cc1cc(OC)c(OC)c(OC)c1)C(=S)Nc1cccc(Cl)c1 | inactive | 
Cc1onc(-c2c(Cl)cccc2Cl)c1C(=O)N1CCc2ccccc21 | inconclusive: 16.4 µM [cytotoxic, single point] | 
O=C(CS(=O)(=O)c1cccc2nsnc12)N1CCN(c2ccc(F)cc2)CC1 | inactive | 
CC(C)OC(=O)CC(=O)CSc1nc2c(cc1C#N)CCCCCC2 | inactive | 
COc1ccc(S(=O)(=O)N2CCN(CCC(=O)Nc3ccc(F)cc3)CC2)cc1 | inconclusive: 29.1 µM [cytotoxic, single point] | 
COc1cc2ccccc2cc1C(=O)Nc1ccc(N2CCN(C)CC2)cc1 | inconclusive: 25.1 µM [cytotoxic, single point] | 
CC(C)CN1CCN(Cc2cccc3nccnc23)CC1CCO (configuration not stated) | inconclusive: 25.9 µM [cytotoxic, partial curve, poor fit] | 
COc1ccc(-c2sc3ccccc3c2-c2ccc(OCCN3CCOCC3)cc2)cc1 | inconclusive: 20.6 µM [cytotoxic, single point] | 
CCOC(=O)CSc1nnc(CNC(=O)c2ccccc2OC)n1-c1ccc(OC)cc1 | inactive | 
O=C(Nc1nc(-c2ccncc2)cs1)C1COc2ccccc2O1 (configuration not stated) | inconclusive: 25.9 µM [cytotoxic, single point] | 
CCOC(=O)CN(C(=O)CNC(=O)c1ccco1)C(C(=O)NC1CCCCC1)c1cccnc1 (configuration not stated) | inconclusive: 29.1 µM [rising, single point] | 
COc1ccc(-c2noc3c2-c2nc(-c4ccccc4C)sc2CC3)cc1 | active: 18.4 µM | 
Cc1cc(/C(N)=N/OC(=O)c2ccc(Cl)cc2)no1 |  | inconclusive: 30.9%
